Measurements reported in US20250163125A1.
Results are given in words; binding and its absence hold for the method and conditions named. Some binding calls cover weakened binding; strength is not graded here.

Sequences of proteins named here, by UniProt entry; tags and fusion partners are left off. A change or cut given only in a name is not applied to a line headed by its entry.
UniProt P06729: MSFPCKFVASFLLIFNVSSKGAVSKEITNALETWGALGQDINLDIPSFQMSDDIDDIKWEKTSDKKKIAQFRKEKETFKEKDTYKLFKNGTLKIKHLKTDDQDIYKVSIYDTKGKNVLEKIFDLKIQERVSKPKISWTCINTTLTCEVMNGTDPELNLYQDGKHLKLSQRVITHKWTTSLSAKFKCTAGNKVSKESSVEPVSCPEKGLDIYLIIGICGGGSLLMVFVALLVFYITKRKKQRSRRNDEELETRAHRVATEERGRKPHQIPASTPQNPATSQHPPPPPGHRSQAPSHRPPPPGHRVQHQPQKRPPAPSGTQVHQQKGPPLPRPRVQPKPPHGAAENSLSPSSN
UniProt P19256: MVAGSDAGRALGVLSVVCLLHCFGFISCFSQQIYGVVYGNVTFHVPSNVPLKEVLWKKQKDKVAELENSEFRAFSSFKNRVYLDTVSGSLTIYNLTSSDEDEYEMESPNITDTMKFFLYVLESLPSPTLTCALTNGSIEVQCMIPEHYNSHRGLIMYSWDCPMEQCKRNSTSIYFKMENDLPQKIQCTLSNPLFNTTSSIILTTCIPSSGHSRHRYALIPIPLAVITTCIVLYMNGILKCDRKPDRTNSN

Target: recombinant human CD2 (human) (UniProt P06729)
Assay: flow cytometry on yeast displaying LFA3

**Q.** For “yeast-displayed N-terminal Ig-domain of human LFA3 (residues 1-93) (from UniProt P19256 29-121) (ligand)”, which binding is on record?
**A.** binds
